The target in the experiment is recombinant fibronectin 11A12 domain (UniProt P02751). The experiment can be described thus: SPR (BIAcore X100), CM5 chip coated with recombinant fibronectin 11A12 domain. On the technique in general: SPR reads the build-up and loss of mass on a sensor chip optically.

By UniProt entry, the sequences of proteins in these tests, tags left out. Residues count along the entry.
UniProt P02751, residues 1635-1908: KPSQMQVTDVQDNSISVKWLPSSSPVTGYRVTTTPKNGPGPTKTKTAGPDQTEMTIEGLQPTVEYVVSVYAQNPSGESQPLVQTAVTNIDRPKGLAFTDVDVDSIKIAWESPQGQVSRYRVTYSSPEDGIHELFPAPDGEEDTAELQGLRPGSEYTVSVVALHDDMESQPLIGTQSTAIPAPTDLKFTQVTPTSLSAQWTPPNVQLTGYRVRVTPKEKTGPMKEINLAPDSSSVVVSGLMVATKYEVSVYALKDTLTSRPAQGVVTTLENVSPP

No constants are given. Whether binding was seen depends on the method and setting. Some entries that bind do so weakly or less than the wild type.

B1: F8(scFv)-mIL9-F8(scFv) (protein)
chain: EVQLLESGGGLVQPGGSLRLSCAASGFTFSLFTMSWVRQAPGKGLEWVSAISGSGGSTYYADSVKGRFTISRDNSKNTLYLQMNSLRAEDTAVYYCAKSTHLYLFDYWGQGTLVTVSSGGGGSGGGGSGGGGEIVLTQSPGTLSLSPGERATLSCRASQSVSMPFLAWYQQKPGQAPRLLIYGASSRATGIPDRFSGSGSGTDFTLTISRLEPEDFAVYYCQQMRGRPPTFGQGTKVEIKSGGSGSGGGGQRCSTTWGIRDTNYLIENLKDDPPSKCSCSGNVTSCLCLSVPTDDCTTPCYREGLLQLTNATQKSRLLPVFHRVKRIVEVLKNITCPSFSCEKPCNQTMAGNTLSFLKSLLGTFQKTEMQRQKSRPSGGSGSGGGGEVQLLESGGGLVQPGGSLRLSCAASGFTFSLFTMSWVRQAPGKGLEWVSAISGSGGSTYYADSVKGRFTISRDNSKNTLYLQMNSLRAEDTAVYYCAKSTHLYLFDYWGQGTLVTVSSGGGGSGGGGSGGGGEIVLTQSPGTLSLSPGERATLSCRASQSVSMPFLAWYQQKPGQAPRLLIYGASSRATGIPDRFSGSGSGTDFTLTISRLEPEDFAVYYCQQMRGRPPTFGQGTKVEIK
As for B1, the binding result was “binds”.

B2: F8(db)-mIL9 (protein)
chain: EVQLLESGGGLVQPGGSLRLSCAASGFTFSLFTMSWVRQAPGKGLEWVSAISGSGGSTYYADSVKGRFTISRDNSKNTLYLQMNSLRAEDTAVYYCAKSTHLYLFDYWGQGTLVTVSSGGSGGEIVLTQSPGTLSLSPGERATLSCRASQSVSMPFLAWYQQKPGQAPRLLIYGASSRATGIPDRFSGSGSGTDFTLTISRLEPEDFAVYYCQQMRGRPPTFGQGTKVEIKGGGGSGGGGSGGGGSQRCSTTWGIRDTNYLIENLKDDPPSKCSCSGNVTSCLCLSVPTDDCTTPCYREGLLQLTNATQKSRLLPVFHRVKRIVEVLKNITCPSFSCEKPCNQTMAGNTLSFLKSLLGTFQKTEMQRQKSRP
In the case of B2, the binding result is “binds”.

B3: mIL9-F8(db) (protein)
chain: QRCSTTWGIRDTNYLIENLKDDPPSKCSCSGNVTSCLCLSVPTDDCTTPCYREGLLQLTNATQKSRLLPVFHRVKRIVEVLKNITCPSFSCEKPCNQTMAGNTLSFLKSLLGTFQKTEMQRQKSRPGGGGSGGGGSGGGGSEVQLLESGGGLVQPGGSLRLSCAASGFTFSLFTMSWVRQAPGKGLEWVSAISGSGGSTYYADSVKGRFTISRDNSKNTLYLQMNSLRAEDTAVYYCAKSTHLYLFDYWGQGTLVTVSSGGSGGEIVLTQSPGTLSLSPGERATLSCRASQSVSMPFLAWYQQKPGQAPRLLIYGASSRATGIPDRFSGSGSGTDFTLTISRLEPEDFAVYYCQQMRGRPPTFGQGTKVEIK
Turning to B3, the binding entry is recorded as “binds”.

Source of the values: patent US20230285585A1, “TREATMENT OF PULMONARY HYPERTENSION” (PHILOGEN S.P.A., priority 2020, published 2023).
